# Reference: paper PMC4763223
# The exact form of at least one protein or probe is not confirmed. For some assays here: A negative result means that nothing was seen under these conditions.
# Experiments:
# [1] = tested on: GST-Kat1 (Kluyveromyces lactis); assay: EMSA; details: 5 mM Mg2+, smear, multimeric complexes, non-specific; EMSA: 50 mM Tris-HCl (pH not given), 0.5 mM EDTA, 1 mM DTT, 100 ug/ml BSA, 7 ng/ul ssDNA, 5 mM MgCl2, 60 min on ice (4 C), ~1.4 nM probe; recombinant protein; protein details: N-terminal GST; label: 32P 5' end; letters put together from the description
# [2] = tested on: GST-Kat1-C (Kluyveromyces lactis); assay: EMSA; details: 5 mM Mg2+, 5-40 nM; EMSA: 50 mM Tris-HCl (pH not given), 0.5 mM EDTA, 1 mM DTT, 100 ug/ml BSA, 7 ng/ul ssDNA, 5 mM MgCl2, 60 min on ice (4 C), ~1.4 nM probe; recombinant protein; protein details: GST; label: 32P 5' end; letters put together from the description
# [3] = tested on: GST-Kat1-N (Kluyveromyces lactis); assay: EMSA; details: 5 mM Mg2+, much stronger than full length; EMSA: 50 mM Tris-HCl (pH not given), 0.5 mM EDTA, 1 mM DTT, 100 ug/ml BSA, 7 ng/ul ssDNA, 5 mM MgCl2, 60 min on ice (4 C), ~1.4 nM probe; recombinant protein; protein details: GST; label: 32P 5' end; letters put together from the description
# [4] = tested on: GST-Kat1 (Kluyveromyces lactis); assay: competition with a labelled probe; details: cold probe competitor 75-300 ng, competed; EMSA: 50 mM Tris-HCl (pH not given), 0.5 mM EDTA, 1 mM DTT, 100 ug/ml BSA, 7 ng/ul ssDNA, 5 mM MgCl2, 60 min on ice (4 C), ~1.4 nM probe; recombinant protein; protein details: N-terminal GST; label: 32P 5' end; letters put together from the description
# [5] = tested on: Kat1 (GST removed by thrombin) (Kluyveromyces lactis); assay: GEMMA (gas-phase electrophoretic mobility); details: 4.0 uM Kat1, 1.4 uM DNA, peaks shifted slightly to higher mass, 100 mM ammonium acetate; recombinant protein
Sequence,binding result [1],binding result [2],binding result [3],binding result [4],binding result [5]
GACATGGAAAGGAAGACATGGTTGGTCTGATTTCATTAACGTTTCAGGTATACATCAAAATTCAGTGAATTTAATTCTGTCGTTTGAAACCAGTTTAGGTGAAATTGGATTAGGTGGTGAATTGATACATAGTAAATAATTACTGGTCCATAATTTTTGTGAATATTTATGCTCTTTATACTATGTAGTTTTTATCCTGAATATTAACGATTGCTCACCTAAATTTCTCGTTTAAAATCCCTATAATGTGAATGGTTTTAGATGATTCATGGTGTTTTTATTAGTGACCGAAATGTTTAGTTTTGGATACTTGATGATAGAATAAAGAGAAGTGTTATGTAAAAAGTGTTAATTCATGTTAAATTCACTACCTTCTTGAGATTCAATTCACACCATTTGATGGTGAATATATCCATCTTAATCAGACGTATACAGAATTCACCTTCAGATGTGTAAGAGTTTTATGTATTCCAATATGTCATTTGTCAATTTGTCTGCATTTCAAACAAAGGAAAAATAAACTTAAGGACATATATCTGAAAATATACCACATAGATACGTCCCTGTTTTAGATACAGC (double strand) [MATa1-MATa2 intergenic probe (577 bp; 579 bp in Fig S5)],binds,no binding,binds,binds,–
TGAATATATCCATCTTAATCAGACGTATACAGAATTCACC (double strand) [TIR-R 40-bp duplex],–,–,–,–,binds
